PMC9663597, “Anti-infective therapy using species-specific activators of Staphylococcus aureus ClpP” (Nature Communications, 2022)
These are yes or no findings as the source states them, for the method shown. Some results given as binding are weak or reduced against the parent protein; the word gives no strength.

Target: T1, Staphylococcus aureus ClpP (Staphylococcus aureus), Q2G036
T1 chain: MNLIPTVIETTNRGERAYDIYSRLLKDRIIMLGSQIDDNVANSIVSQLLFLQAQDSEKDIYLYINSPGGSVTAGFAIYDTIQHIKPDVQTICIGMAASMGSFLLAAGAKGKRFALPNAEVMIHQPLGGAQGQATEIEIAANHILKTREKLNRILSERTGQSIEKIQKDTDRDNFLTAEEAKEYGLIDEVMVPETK
Experiment: crystal structure; SaClpP (10 mg/mL) with 5-fold (R)- or (S)-ZG197, sitting drop vapor diffusion at 16 °C, 30% 2-methyl-2,4-pentanediol, 0.1 M sodium acetate trihydrate pH 4.6, 200 mM sodium chloride; 2.15 Å and 2.11 Å; both purified
Conditions: remark: other sources report otherwise

B1: Staphylococcus aureus ClpP, Q2G036 1-195 (enzyme)
chain: MNLIPTVIETTNRGERAYDIYSRLLKDRIIMLGSQIDDNVANSIVSQLLFLQAQDSEKDIYLYINSPGGSVTAGFAIYDTIQHIKPDVQTICIGMAASMGSFLLAAGAKGKRFALPNAEVMIHQPLGGAQGQATEIEIAANHILKTREKLNRILSERTGQSIEKIQKDTDRDNFLTAEEAKEYGLIDEVMVPETK
- binding: binds
